Experimental findings from ChEMBL document CHEMBL5390203, “Identification of Obscurolide-Type Metabolites and Antifungal Metabolites from the Termite-Associated Streptomyces neopeptinius BYF101” (2023) are described below.

This test deals with Candida albicans. Put plainly: Antifungal activity against Candida albicans SC5314 assessed as fungal growth inhibition incubated for 2 days by broth serial dilution method. In kind it is functional. Conditions: SC5314, 48 h, time 2 day.

The structures appear in SMILES notation. In brackets after ≈: the same amount, converted by molar mass.

As a reminder, the MIC is the lowest concentration that inhibits growth of the organism.

For `OC(Cn1cncn1)(Cn1cncn1)c1ccc(F)cc1F` [FLUCONAZOLE], the MIC came to 4 mg/L (≈ 13.1 µM).
